Assay results taken from PubChem BioAssay AID445 (National Center for Advancing Translational Sciences (NCATS), 2006).
The other results are listed elsewhere or left out. Further columns of the screen follow, without active or inactive calls. The list favours compounds with an active or inconclusive main result. Words in brackets tell the shape of the fitted curve; partial curves, single points and poor fits give uncertain potencies.

Test: IkB Signaling
Conditions: ABC-DLBCL IkBa-CBG/CBR dual luciferase ratio (green luciferase fused to IkBa over red control in OCI-Ly3 lymphoma cells), 4 h
In short: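 Curves were fitted separately to fusion (green), unfused (red) and ratio luminescence, then classed by r2, magnitude and activity. Cells: OCI-Ly3, 4 h compound plus doxycycline at 37C; 10 uM MG-132 defined full response.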

[1] = measured here: control luc red channel unless noted
[2] = measured here: IkB-luc green channel
[3] = measured here: control luc red channel

In the case of `COc1ccc(C2c3c(n(C)c4ccccc34)C(=O)N2CC(=O)Nc2c(C)cc(C)cc2C)cc1` (stereo not given), the AC50 [1] is reported as 20 µM [falling, partial curve].
With `Cc1ccc(-c2csc(N(CCCN3CCOCC3)C(=O)c3ccco3)n2)cc1` the AC50 [1] was 39.8 µM [falling, single point].
With `CCOc1ccccc1CNC(=O)C(CC)n1nc(C)c2c(C)n(-c3ccccc3)nc2c1=O` (stereo not given) the AC50 [1] was 25.1 µM [falling, partial curve].
For `Cc1c(C(=O)NCc2ccccc2Cl)sc2nc3n(c(=O)c12)CCCC3`, the AC50 [1] was 31.6 µM [falling, single point].
With `CCOC(=O)N1CCC(NC(=O)c2ccc3c(c2)N(Cc2ccccc2)C(=O)c2ccccc2S3(=O)=O)CC1` the AC50 [1] was 2.51 µM [falling, full curve, poor fit].
With `Cc1ccc2c(c1)C(=O)OC(C(=O)Nc1ccc(C(=O)O)cc1)C2` (stereo not given) the AC50 [1] was 0.251 µM [falling, full curve].
With `O=C(Nc1ccc(Cl)cc1)c1ccc2oc(=O)n(Cc3ccccc3)c2c1` the AC50 [1] was 39.8 µM [falling, single point].
For `COc1ccc(C(=O)CN2CCN(S(=O)(=O)c3ccc(F)cc3)CC2)cc1`, the AC50 [1] was 5.01 µM [falling, full curve, poor fit].
In the case of `Cc1ccc(C)c(NC(=O)CSc2c(C)cnc3c2c(=O)n(C)c(=O)n3C)c1`, the AC50 [1] is reported as 25.1 µM [rising, single point].
For `CCOc1ccc(OCC)c(NS(=O)(=O)c2c(C)[nH]c(=O)[nH]c2=O)c1`, the AC50 [1] was 3.98 µM [rising, partial curve].
In the case of `O=C(Cn1cnc2nc3c(cc2c1=O)CCCC3)N1CCN(c2cccc(C(F)(F)F)c2)CC1`, the AC50 [1] is reported as 12.6 µM [falling, partial curve].
For `CCC(=O)N1c2ccccc2CC1C(=O)N1CCN(c2cccc(OC)c2)CC1` (stereo not given), the AC50 [1] was 31.6 µM [falling, partial curve].
In the case of `CC(=O)c1ccc(S(=O)(=O)Nc2ccc(-c3ccc(N4CCCCC4)nn3)cc2)cc1`, the AC50 [1] is reported as 25.1 µM [falling, single point].
For `Cc1cccc(NC(=O)CC2Nc3cccc4cccc(c34)NC2=O)c1` (stereo not given), the AC50 [1] was 10 µM [falling, partial curve].
With `Cc1cccc(NC(=O)CSc2nc(-c3cccc(C)c3)nc3c2Cc2c(CO)cnc(C)c2O3)c1` the AC50 [1] was 12.6 µM [falling, partial curve].
In the case of `Cc1ccc2c(CC(=O)Nc3cccc(C(F)(F)F)c3)coc2c1`, the AC50 [1] is reported as 31.6 µM [falling, single point].
In the case of `CC(C)NC(=O)NC(=O)COC(=O)Cc1ccsc1`, the AC50 [1] is reported as 6.31 µM [rising, single point].
In the case of `CCOC(=O)COc1ccc(/C=C(\C#N)c2nc3ccc(C)cc3[nH]2)cc1OC`, the AC50 [1] is reported as 20 µM [falling, single point].
For `CCCCOc1ccc(C(=O)Nc2cc(-c3ccc(C)cc3)no2)cc1`, the AC50 [1] was 0.631 µM [falling, full curve, poor fit].
In the case of `CCOC(=O)c1sc(N2C(=O)c3oc4ccccc4c(=O)c3C2c2ccc(C(C)(C)C)cc2)nc1C` (stereo not given), the AC50 [1] is reported as 25.1 µM [falling, partial curve].
For `Cc1oc2ncn(CC(C)C)c(=O)c2c1C(=O)NCCc1ccc(Cl)cc1`, the AC50 [1] was 3.16 µM [falling, single point].
For `NC(=O)c1cc(-c2ccccc2)nc(N2CCOCC2)n1`, the AC50 [1] was 7.94 µM [falling, partial curve].
For `O=C(COC(=O)c1ccco1)NCc1ccco1`, the AC50 [1] was 39.8 µM [falling, single point].
In the case of `Cc1ccc(CNC(=O)c2ccc3c(c2)CCN3S(=O)(=O)c2ccccc2)cc1`, the AC50 [1] is reported as 20 µM [falling, partial curve].
For `CCOc1ccccc1NC(=O)C1CCCN(c2ncnc3onc(-c4ccc(F)cc4)c23)C1` (stereo not given), the AC50 [1] was 39.8 µM [falling, partial curve, poor fit].
In the case of `O=C(CSCc1cnn(-c2ccccc2)c1-n1cccc1)NCc1ccc2c(c1)OCO2`, the AC50 [1] is reported as 15.8 µM [falling, partial curve].
With `COc1ccc(S(=O)(=O)N(CC(=O)N2CCN(c3ccccc3OC)CC2)c2ccccc2)cc1` the AC50 [1] was 10 µM [falling, partial curve].
With `COc1ccc(C2C(C(=O)Nc3ccc(C)cc3C)=C(C)Nc3nc(SC)nn32)cc1OC` (stereo not given) the AC50 [1] was 0.794 µM [falling, single point].
For `Cc1ccc(NC(=O)CSc2nnc(COc3ccc(Cl)cc3)o2)cc1`, the AC50 [1] was 3.98 µM [falling, full curve].
For `COc1ccc(S(=O)(=O)Nc2ccc3c(c2)sc(=O)n3C)cc1Cl`, the AC50 [1] was 31.6 µM [rising, single point] [measured here: IkB-luc green channel].
With `Cc1cc2c(cc1S(=O)(=O)CCC(=O)N(C)C1CCCCC1)OCC(=O)N2` the AC50 [1] was 10 µM [falling, partial curve].
With `CN(c1ncnc2c1c(-c1ccccc1)cn2-c1cccc(Cl)c1)C1CCCCC1` the AC50 [1] was 31.6 µM [falling, single point].
For `O=S(=O)(CCN1CCN(C(c2ccccc2)c2ccccc2)CC1)C(F)(F)F`, the AC50 [2] was 39.8 µM [rising, single point] and the AC50 [3] was 20 µM [falling, single point].
In the case of `COc1cccc(NC(=O)CCc2nc(-c3ccc(C(C)(C)C)cc3)no2)c1`, the AC50 [1] is reported as 1.58 µM [falling, full curve].
With `Cc1cc(NC(=O)NC(=O)c2ccc(F)cc2F)n[nH]1` the AC50 [1] was 3.16 µM [falling, partial curve].
For `COc1ccc(N2CCN(C(=O)CSc3nnc(-c4cc5ccccc5cc4O)n3C)CC2)cc1`, the AC50 [2] was 31.6 µM [falling, single point] and the AC50 [3] was 15.8 µM [falling, partial curve].
In the case of `CCc1ccc(CN(Cc2ccco2)C(=O)COc2ccccc2Cl)cc1`, the AC50 [1] is reported as 31.6 µM [falling, single point].
With `Cc1cccc(-n2c(=O)c3c(c4cc(C)ccc4n3C)n(C)c2=O)c1` the AC50 [1] was 0.316 µM [falling, full curve].
In the case of `COc1ccc2c(c1)CCc1c(C(=O)Nc3cnn(Cc4ccc(Cl)cc4Cl)c3)noc1-2`, the AC50 [1] is reported as 10 µM [falling, partial curve].
With `COc1cccc(NC(=O)CCSc2nc(-c3ccco3)cc(C(F)(F)F)n2)c1` the AC50 [1] was 15.8 µM [falling, partial curve].
For `CCc1nn2c(=O)cc(COC(=O)c3cccc(NC(=O)COc4ccccc4)c3)nc2s1`, the AC50 [1] was 3.16 µM [falling, partial curve].
In the case of `Cc1cc(C)cc(NC(=O)Cn2cc(C(=O)c3ccncc3)c(=O)c3cc(C)c(C)cc32)c1`, the AC50 [1] is reported as 25.1 µM [falling, partial curve].
With `Cc1cccc(NC(=O)C2CCN(S(=O)(=O)c3ccc4[nH]c5c(c4c3)CCCCC5)CC2)c1` the AC50 [1] was 39.8 µM [falling, single point].
For `COc1ccccc1-c1noc(-c2cccnc2)n1`, the AC50 [1] was 12.6 µM [falling, partial curve, poor fit].
For `Cc1ccccc1CN1C(=O)c2ccccc2Sc2ccc(C(=O)O)cc21`, the AC50 [1] was 3.16 µM [falling, partial curve].
In the case of `Cc1ccc(NC(=O)C2CCCN(c3cnccn3)C2)cc1Cl` (stereo not given), the AC50 [1] is reported as 12.6 µM [falling, single point].
For `Cc1ccc(CS(=O)Cc2ccc(C(=O)NCc3ccccc3Cl)o2)cc1` (stereo not given), the AC50 [1] was 20 µM [falling, partial curve, poor fit].
With `COc1ccccc1C(=O)Nc1cccc(OCc2cc(=O)n3c(C)csc3n2)c1` the AC50 [1] was 25.1 µM [falling, single point].
For `CC(C)c1ccc(NC(=O)C2CCN(S(=O)(=O)c3ccc(Br)s3)CC2)cc1`, the AC50 [1] was 7.94 µM [falling, full curve].
For `CN1C(=O)C(O)(CC(=O)c2ccccc2O)c2cc(Br)ccc21` (stereo not given), the AC50 [2] was 3.16 µM [rising, full curve] and the AC50 [3] was 2 µM [rising, full curve].
In the case of `CSc1nn(Cc2ccccc2C)c(NC(C)=O)c1S(=O)(=O)c1ccc(C)cc1`, the AC50 [1] is reported as 25.1 µM [falling, partial curve].
With `COCCN1Cc2cccc(C(=O)Nc3ccc(C(=O)OC)cc3)c2C1=O` the AC50 [1] was 1.26 µM [rising, full curve].
In the case of `Cc1cc2cc(CCNS(=O)(=O)c3ccc(Br)cc3)c(=O)[nH]c2cc1C`, the AC50 [1] is reported as 31.6 µM [falling, partial curve].
In the case of `COc1ccccc1C(=O)Nc1ccc2nc(SCC(=O)N3CCCC3)sc2c1`, the AC50 [1] is reported as 20 µM [falling, single point].
In the case of `CCCCc1cc(O)c(CCCC)c(O)c1`, the AC50 [1] is reported as 39.8 µM [falling, single point].
With `Cc1ccc(NC(=O)/C(C#N)=C\c2ccc(-c3ccc(Cl)cc3)o2)c(C)c1` the AC50 [1] was 5.01 µM [rising, single point].
For `CCCCCn1c(=O)[nH]c2cc(C(=O)N3CCN(c4cccc(Cl)c4)CC3)ccc2c1=O`, the AC50 [1] was 5.01 µM [falling, single point].
For `CN(c1ccccc1)S(=O)(=O)c1nnc(NC(=O)c2ccco2)s1`, the AC50 [1] was 0.01 µM [rising, full curve].
In the case of `Cc1ccc(OCC(=O)Nc2cccc(O)c2)cc1C`, the AC50 [1] is reported as 7.94 µM [falling, partial curve].
In the case of `Cc1ccc2nc(N(Cc3cccnc3)C(=O)c3ccco3)sc2c1`, the AC50 [1] is reported as 20 µM [falling, single point].
With `Cc1cccc(N2CCN(C(=O)c3cn(C)c4ccc(S(=O)(=O)N(C)C)cc4c3=O)CC2C)c1` (stereo not given) the AC50 [1] was 3.16 µM [falling, single point].
In the case of `CCc1nnc(SCC(=O)Nc2ccc(Cl)cc2F)c2cc3occc3n12`, the AC50 [1] is reported as 5.01 µM [falling, full curve, poor fit].
